## Library screen at single concentrations

Data taken from ChEMBL document CHEMBL3988442, “University of Dundee, Small-Polar-MMV Screening Library” (2021).

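Whole-cell growth test on Mycobacterium tuberculosis, read after 3 days in glucose-containing 7H9 medium; the read-out is not stated. Tested at 50 µM. Higher reads as more growth inhibition (inferred: compounds with an IC50 in retests scored well above the rest). Of about 69,000 compounds tested this way, about 760 (1.1%) reached 50% or more in at least one test.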

Values are the deposited “Percent Effect”, in %.
The record does not define 0% and 100%; most values in the screen are far below 50% and negative numbers occur (in some assays of this library far below -100).
Compounds were drawn at random from those tested, without regard to their results.
Two or more numbers in one place are separate tests of the same structure; such repeats can differ widely.

Result for COCCOCCNS(=O)(=O)C1CS(=O)(=O)c2ccccc21 (stereo not drawn) was -29.57%.
Result for CC(C)n1nc(CN2CCOCC2)c2c1CN(C(=O)c1ccno1)C2.O=C(O)C(F)(F)F was -14.23%.
Result for CCn1cnnc1CNC(=O)N(C)Cc1ccccc1OC was 2.487% and 2.349%.
Result for CN(Cc1ccccc1F)C(=O)Cn1cc(NC(=O)C(C)(C)C)cn1 was -24.48%.
Result for Cc1ccc(C(=O)Nc2ccc(N3CCC(O)CC3)c(C#N)c2)s1 was 27.55% and 9.002%.
Result for CN(C)C(=O)N1CC[C@@H](c2ccc3ccccc3c2)[C@H](O)C1 was -9.875% and 7.79%.
Result for COCCc1noc(CN2CCCC2Cn2nc(C)nc2C)n1 (stereo not drawn) was -22.99%.
Result for CC(C)C(=O)NCc1ccc(N2CCCC2)nc1 was 2.627%.
Result for COCCN(C(=O)c1cc(C)no1)c1ccc(C#N)cc1 was 5.638% and 13.44%.
Result for Cc1cccnc1[C@H](C)Nc1nc(-c2cccnc2)nc2c1CNC2 was 21.34%.
Result for OC(COCc1ccccc1F)CN1CCC(Cn2cccn2)CC1 (stereo not drawn) was 5.521%.
Result for CCN(C)c1ncnc2c1CCN(Cc1csc(C)n1)CC2.O=C(O)C(F)(F)F.O=C(O)C(F)(F)F was -0.7186%.
Result for O=C(O)C(F)(F)F.O=C(O)C(F)(F)F.O=C(O)C(F)(F)F.c1ccc(CN2Cc3[nH]nc(COc4cccnc4)c3C2)nc1 was -28.79%.
Result for O=C(Cn1cccnc1=O)NC(Cc1ccsc1)c1cccnc1 (stereo not drawn) was 2.729%.
Result for CCc1ccc(OCC(=O)N2CCN(CC)CC2)cc1 was 12.71% and 16.95%.
Result for CN(Cc1ccco1)C(=O)CN1CCCC(Cn2cncn2)C1 (stereo not drawn) was 29.09%.
Result for COc1cccc2c1OCC(C(=O)NCc1ncc3c(n1)CCC3)C2 (stereo not drawn) was 14.62%.
Result for Cc1csc(CN(C)C(=O)Nc2cc(F)cc(N3CCCC3)c2)n1 was 1.26%.
Result for COc1cccc(S(=O)(=O)N2CCC(O)(CN(C)C)C2)c1 (stereo not drawn) was 20.32%.
Result for c1ncn(Cc2nnc(C3CCN(C4CCOCC4)CC3)n2C2CC2)n1 was 12.89%.
Result for Cc1nn(C)cc1C(=O)NCc1csc(C2CC2)n1 was -9.826% and -6.102%.
Result for CC(C)N(CC1CCCN(Cc2ccon2)C1)C(=O)OC(C)(C)C (stereo not drawn) was -33.23%.
Result for N#Cc1c(F)cccc1Nc1cnn(CC(N)=O)c1 was 7.579%.
Result for Cc1c(C)n(Cc2ccncc2)c2nc3c(c(N)c12)CCCC3 was 17.14%.
Result for CC1CCCCN1C(=O)c1coc(COc2cccc3cnccc23)n1 (stereo not drawn) was 53.99% and 52.8%.
Result for [H][C@]12CN(Cc3ncccn3)CC[C@@]1(O)CCN(C(=O)C1CCCC1)C2 was -10.14%.
Result for COCC(=O)N1CCN(C(=O)c2cccs2)C[C@H]1C(=O)OC was -11.19% and 3.489%.
Result for O=C(NCCc1cnccn1)c1cccc(S(=O)(=O)NC2CCOC2)c1 (stereo not drawn) was 6.127%.
Result for O=C(Cc1ccsc1)N1CCc2ccc(=O)n(CC3CC3)c2CC1 was -2.47% and -9.08%.
Result for Cc1nc(CC(=O)N2CCC3(CC2)CC(=O)N(CC2CCCO2)C3)cs1 (stereo not drawn) was -21.68%.
Result for Cc1cccc(CN2CCC3(CC2)NC(=O)CC3c2ccccc2)n1.O=C(O)C(F)(F)F (stereo not drawn) was -2.937%.
Result for CCOCC1CN(C(=O)c2cccn2C)Cc2cnn(CC3CC3)c21.O=C(O)C(F)(F)F (stereo not drawn) was 29.91%.
Result for O=C(c1cccc(NCCO)c1)N1CCOCC1 was -39.92%.

Once more, the final 2:

| compound | effect |
|---|---|
| `CCOCC1CN(C(=O)c2cccn2C)Cc2cnn(CC3CC3)c21.O=C(O)C(F)(F)F` (stereo not drawn) | 29.91% |
| `O=C(c1cccc(NCCO)c1)N1CCOCC1` | -39.92% |